Reference: the supplement of paper PMC10849652
This is one part of the list.

Amino acid sequences for entries named in this document (tags omitted). A change or cut given only in a name is not applied to a line headed by its entry.
UniProt Q6DD88: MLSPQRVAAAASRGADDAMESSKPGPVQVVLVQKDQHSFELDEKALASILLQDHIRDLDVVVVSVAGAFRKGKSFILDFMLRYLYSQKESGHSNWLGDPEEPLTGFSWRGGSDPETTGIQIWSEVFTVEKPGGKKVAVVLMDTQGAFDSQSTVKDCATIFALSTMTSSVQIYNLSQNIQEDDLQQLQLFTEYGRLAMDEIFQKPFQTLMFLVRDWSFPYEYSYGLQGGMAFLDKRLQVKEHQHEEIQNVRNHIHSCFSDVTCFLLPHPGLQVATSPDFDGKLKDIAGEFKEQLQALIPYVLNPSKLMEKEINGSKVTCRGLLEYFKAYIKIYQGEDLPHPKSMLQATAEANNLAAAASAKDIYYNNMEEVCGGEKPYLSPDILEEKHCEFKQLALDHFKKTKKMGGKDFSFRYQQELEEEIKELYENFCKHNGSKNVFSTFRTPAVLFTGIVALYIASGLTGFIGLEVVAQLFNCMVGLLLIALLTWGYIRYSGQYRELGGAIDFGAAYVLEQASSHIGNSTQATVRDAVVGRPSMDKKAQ
UniProt Q8N6S5: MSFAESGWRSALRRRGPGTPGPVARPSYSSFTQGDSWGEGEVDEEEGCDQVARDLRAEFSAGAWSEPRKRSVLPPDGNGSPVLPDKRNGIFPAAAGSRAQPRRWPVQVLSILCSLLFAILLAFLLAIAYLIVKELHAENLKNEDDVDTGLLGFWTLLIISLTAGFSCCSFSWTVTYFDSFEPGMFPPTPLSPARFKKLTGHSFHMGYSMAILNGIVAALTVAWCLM
UniProt P49407: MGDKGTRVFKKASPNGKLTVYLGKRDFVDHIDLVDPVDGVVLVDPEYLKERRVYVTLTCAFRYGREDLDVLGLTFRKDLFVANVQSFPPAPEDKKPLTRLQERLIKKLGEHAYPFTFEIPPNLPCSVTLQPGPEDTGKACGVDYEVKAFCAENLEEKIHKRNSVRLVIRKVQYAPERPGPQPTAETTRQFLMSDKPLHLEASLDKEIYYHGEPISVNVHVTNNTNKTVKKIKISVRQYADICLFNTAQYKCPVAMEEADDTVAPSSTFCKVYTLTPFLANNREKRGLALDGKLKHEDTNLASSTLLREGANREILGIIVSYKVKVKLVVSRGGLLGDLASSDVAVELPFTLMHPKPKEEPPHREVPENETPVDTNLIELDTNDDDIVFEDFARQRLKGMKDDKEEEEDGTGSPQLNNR
UniProt Q9ULH1: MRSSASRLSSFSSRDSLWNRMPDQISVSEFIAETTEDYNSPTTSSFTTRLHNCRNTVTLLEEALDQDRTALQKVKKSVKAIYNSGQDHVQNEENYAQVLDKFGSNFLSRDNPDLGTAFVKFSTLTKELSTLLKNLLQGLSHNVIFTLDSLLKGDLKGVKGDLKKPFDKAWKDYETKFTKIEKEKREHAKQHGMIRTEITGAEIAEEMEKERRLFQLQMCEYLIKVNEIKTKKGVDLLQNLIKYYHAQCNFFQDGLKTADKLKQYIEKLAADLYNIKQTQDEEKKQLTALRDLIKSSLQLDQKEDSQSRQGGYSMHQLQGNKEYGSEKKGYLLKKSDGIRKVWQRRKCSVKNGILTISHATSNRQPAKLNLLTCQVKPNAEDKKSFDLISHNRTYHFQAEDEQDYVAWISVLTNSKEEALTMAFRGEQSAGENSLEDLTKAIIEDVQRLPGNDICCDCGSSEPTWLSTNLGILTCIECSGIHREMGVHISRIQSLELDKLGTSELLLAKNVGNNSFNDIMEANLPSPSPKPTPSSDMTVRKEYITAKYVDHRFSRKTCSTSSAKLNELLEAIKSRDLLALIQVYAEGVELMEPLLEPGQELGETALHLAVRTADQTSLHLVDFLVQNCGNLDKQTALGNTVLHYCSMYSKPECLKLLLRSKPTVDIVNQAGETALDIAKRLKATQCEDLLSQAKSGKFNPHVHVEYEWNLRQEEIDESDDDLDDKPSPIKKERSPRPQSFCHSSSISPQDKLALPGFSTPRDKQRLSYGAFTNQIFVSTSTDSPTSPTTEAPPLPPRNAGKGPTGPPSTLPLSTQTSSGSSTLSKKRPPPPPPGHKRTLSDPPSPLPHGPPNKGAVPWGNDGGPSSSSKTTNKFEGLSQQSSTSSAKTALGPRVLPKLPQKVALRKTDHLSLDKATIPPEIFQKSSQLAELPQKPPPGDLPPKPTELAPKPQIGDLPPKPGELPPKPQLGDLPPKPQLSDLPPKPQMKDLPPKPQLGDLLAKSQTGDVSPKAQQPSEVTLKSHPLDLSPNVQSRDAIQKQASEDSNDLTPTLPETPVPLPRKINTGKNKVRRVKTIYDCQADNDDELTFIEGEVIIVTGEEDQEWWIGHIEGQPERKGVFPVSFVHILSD
UniProt Q06055: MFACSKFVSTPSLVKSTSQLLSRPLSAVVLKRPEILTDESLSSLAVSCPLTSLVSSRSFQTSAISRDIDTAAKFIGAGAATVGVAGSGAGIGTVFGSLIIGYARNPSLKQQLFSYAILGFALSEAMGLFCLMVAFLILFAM
UniProt Q9UBL3, whole entry, looked up: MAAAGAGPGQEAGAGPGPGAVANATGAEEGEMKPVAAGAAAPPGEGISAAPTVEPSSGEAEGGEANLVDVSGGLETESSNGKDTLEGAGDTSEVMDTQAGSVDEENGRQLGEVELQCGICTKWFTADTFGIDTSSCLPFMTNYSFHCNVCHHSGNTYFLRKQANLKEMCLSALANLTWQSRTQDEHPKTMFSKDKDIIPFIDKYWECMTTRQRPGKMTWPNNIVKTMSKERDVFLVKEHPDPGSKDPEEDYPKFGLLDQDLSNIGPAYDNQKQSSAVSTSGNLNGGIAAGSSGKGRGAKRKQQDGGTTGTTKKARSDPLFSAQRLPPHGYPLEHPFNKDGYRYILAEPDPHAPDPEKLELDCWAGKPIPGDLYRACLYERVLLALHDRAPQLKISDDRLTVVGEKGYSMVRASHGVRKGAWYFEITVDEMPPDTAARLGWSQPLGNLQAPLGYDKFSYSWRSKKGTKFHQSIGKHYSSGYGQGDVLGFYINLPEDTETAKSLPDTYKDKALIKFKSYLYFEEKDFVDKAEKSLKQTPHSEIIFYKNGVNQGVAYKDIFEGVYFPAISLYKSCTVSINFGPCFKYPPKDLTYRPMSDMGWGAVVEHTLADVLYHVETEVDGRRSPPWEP
UniProt P21281, whole entry, looked up: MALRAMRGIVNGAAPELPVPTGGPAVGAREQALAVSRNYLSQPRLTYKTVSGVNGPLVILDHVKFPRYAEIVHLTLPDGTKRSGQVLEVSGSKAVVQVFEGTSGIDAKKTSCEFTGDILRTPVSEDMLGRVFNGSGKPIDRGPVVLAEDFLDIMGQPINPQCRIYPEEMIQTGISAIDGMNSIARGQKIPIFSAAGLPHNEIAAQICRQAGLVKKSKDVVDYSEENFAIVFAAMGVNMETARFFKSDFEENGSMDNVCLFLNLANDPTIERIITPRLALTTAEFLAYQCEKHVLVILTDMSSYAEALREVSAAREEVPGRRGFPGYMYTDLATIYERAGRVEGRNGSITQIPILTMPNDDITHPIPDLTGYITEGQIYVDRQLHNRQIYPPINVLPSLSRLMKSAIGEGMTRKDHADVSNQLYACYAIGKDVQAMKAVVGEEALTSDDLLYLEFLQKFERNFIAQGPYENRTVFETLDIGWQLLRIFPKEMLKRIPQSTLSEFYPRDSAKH
UniProt Q9Y294, whole entry, looked up: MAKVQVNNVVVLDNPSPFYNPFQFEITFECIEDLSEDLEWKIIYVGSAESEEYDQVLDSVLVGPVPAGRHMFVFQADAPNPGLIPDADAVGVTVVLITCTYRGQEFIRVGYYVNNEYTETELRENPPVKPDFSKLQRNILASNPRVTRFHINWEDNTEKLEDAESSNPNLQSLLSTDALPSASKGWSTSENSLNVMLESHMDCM
UniProt P32121, whole entry, looked up: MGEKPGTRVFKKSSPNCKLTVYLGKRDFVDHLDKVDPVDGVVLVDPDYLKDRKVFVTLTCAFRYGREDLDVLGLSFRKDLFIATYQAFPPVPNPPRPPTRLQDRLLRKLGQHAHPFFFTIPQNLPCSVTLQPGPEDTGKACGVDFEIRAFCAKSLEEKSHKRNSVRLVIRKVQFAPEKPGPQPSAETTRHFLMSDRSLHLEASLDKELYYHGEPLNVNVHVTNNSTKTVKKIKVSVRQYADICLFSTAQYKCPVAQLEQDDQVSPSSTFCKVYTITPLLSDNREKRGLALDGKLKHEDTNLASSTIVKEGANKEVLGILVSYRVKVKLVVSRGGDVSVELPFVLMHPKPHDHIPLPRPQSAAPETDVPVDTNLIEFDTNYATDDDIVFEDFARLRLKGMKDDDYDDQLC
UniProt Q66PJ3: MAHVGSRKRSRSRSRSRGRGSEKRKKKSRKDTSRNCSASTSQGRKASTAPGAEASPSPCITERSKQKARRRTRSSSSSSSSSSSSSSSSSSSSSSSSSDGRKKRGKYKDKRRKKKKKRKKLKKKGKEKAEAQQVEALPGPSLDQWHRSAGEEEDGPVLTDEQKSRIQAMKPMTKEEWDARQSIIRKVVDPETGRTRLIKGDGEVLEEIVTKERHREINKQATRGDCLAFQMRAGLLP
UniProt Q5TC12: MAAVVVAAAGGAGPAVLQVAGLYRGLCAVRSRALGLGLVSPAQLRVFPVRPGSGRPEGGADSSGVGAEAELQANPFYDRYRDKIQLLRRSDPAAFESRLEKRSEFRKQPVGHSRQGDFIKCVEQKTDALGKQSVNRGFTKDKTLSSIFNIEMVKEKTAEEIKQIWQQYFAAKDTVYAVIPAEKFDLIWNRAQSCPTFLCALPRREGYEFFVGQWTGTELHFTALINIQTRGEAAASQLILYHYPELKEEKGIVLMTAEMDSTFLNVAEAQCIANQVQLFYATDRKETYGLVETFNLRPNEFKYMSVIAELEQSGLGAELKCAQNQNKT
UniProt Q92747, whole entry, looked up: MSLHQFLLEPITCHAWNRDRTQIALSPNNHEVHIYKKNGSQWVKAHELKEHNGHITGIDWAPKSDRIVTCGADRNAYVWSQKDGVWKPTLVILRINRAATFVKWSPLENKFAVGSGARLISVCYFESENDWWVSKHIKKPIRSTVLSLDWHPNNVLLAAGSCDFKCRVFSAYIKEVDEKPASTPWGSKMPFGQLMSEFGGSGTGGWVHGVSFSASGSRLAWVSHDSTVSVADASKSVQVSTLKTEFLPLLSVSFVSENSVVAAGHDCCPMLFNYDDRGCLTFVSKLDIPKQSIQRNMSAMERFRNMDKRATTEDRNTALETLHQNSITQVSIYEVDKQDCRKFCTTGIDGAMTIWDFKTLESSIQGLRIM
UniProt P21283, whole entry, looked up: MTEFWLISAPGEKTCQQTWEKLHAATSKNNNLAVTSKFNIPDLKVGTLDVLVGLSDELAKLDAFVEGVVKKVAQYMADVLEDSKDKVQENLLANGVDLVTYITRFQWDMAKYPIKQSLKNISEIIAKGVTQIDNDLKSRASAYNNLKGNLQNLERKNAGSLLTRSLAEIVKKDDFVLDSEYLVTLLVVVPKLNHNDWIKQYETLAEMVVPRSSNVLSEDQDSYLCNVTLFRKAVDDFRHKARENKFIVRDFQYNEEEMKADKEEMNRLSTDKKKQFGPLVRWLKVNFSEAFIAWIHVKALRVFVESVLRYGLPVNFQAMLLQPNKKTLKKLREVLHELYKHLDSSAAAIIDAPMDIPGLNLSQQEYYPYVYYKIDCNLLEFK
UniProt P27540, whole entry, looked up: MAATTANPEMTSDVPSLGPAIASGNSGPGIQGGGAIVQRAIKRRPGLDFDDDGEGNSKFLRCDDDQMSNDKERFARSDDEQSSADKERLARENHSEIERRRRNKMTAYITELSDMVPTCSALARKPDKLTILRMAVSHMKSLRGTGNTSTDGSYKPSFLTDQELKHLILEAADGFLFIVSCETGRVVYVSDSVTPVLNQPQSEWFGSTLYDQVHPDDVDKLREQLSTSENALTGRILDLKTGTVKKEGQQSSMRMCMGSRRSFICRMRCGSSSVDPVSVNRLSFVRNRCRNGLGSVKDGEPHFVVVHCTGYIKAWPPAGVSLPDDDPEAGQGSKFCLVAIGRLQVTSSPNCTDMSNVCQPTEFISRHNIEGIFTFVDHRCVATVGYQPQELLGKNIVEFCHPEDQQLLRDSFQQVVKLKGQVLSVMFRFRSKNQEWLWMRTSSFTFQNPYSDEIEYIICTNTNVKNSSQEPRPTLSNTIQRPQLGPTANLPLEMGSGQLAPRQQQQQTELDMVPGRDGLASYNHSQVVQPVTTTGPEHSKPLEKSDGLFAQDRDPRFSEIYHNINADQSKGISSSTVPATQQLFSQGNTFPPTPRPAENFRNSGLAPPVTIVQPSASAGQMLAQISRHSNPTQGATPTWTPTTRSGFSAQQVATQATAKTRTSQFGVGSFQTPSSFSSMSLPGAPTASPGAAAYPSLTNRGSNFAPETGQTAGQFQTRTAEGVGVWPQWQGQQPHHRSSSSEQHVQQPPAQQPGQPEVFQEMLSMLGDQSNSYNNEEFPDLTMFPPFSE
UniProt P56385: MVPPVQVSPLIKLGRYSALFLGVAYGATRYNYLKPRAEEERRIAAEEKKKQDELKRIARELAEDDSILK
UniProt P56211: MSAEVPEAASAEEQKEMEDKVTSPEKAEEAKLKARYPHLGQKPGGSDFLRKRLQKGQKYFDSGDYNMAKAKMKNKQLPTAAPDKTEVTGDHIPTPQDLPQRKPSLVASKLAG
UniProt P56134: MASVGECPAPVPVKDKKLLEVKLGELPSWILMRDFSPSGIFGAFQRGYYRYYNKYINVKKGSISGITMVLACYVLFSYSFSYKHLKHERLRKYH

Legend:
Assay in all cases: log2 fold change, soluble protein after heating vs DMSO (PISA); higher = thermal stabilisation; K562 cells, 10 uM, 30 min; active = over 0.2 and 3.5 SD of the protein, either way, in both replicates (recomputed)
[1] = compound: CC1=C(C=C(C=C1)NC(=O)C2=CC(=CC=C2)C(C)(C)C#N)NC3=CC4=C(C=C3)N=CN(C4=O)C
Outline: (§1)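 For each measurement, 10 μM compound was applied for 30 min to K562 cells at 2×10^6 cells/mL. Aliquots were heated for 3 min across 48°C-58°C, pooled, and extracted in PBS with 0.5% NP-40 at 4°C; the supernatant after 21,000xg for 90 min was soluble protein. This was quantified by TMTpro 16plex LC-MS/MS with channel sums equalised, and thermal stability was reported relative to control samples from duplicates, on a log2 fold-change scale.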

[2] = compound: CC1=C(C=C(C=C1)NC(=O)C2=CC(=CC=C2)N(C)C)NC(=O)C3=CC=C(C=C3)O
Outline: as §1

[3] = compound: CC1=CC=C(C=C1)SC2=C3C=C(SC3=CN=C2)C(=O)N
Outline: as §1

[4] = compound: CC1=NC(=CC=C1)C2=C(N=C(N2)C(C)(C)C)C3=CC4=NC=CN=C4C=C3
Outline: as §1

Nexturastat A = compound: CCCCN(Cc1ccc(C(=O)NO)cc1)C(=O)Nc1ccccc1 [Nexturastat A]
Outline: as §1

vemurafenib = compound: CCCS(=O)(=O)Nc1ccc(F)c(C(=O)c2c[nH]c3ncc(-c4ccc(Cl)cc4)cc23)c1F [vemurafenib]
Outline: as §1

[5] = compound: CCCS(=O)(=O)Nc1ccc(F)c(C(=O)c2c[nH]c3ncc(Cl)cc23)c1F
Outline: as §1

[6] = compound: CCCc1cc(C)[nH]c(=O)c1CNC(=O)c1cc(-c2ccnc(N3CCN(C)CC3)c2)cc2c1cnn2C(C)C
Outline: as §1

givinostat = compound: CCN(CC)Cc1ccc2cc(COC(=O)Nc3ccc(C(=O)NO)cc3)ccc2c1 [givinostat]
Outline: as §1

barasertib = compound: CCN(CCCOc1ccc2c(Nc3cc(CC(=O)Nc4cccc(F)c4)[nH]n3)ncnc2c1)CCOP(=O)(O)O [barasertib]
Outline: as §1

Measured: log2 fold change

ATG13 isoform 5 (UniProt O75143)
inactive: [1] -0.015 | [2] -0.024 | [3] 0.057 | [4] 0.006 | Nexturastat A 0.063 | vemurafenib -0.003 | [5] -0.012 | [6] -0.012 | givinostat 0.018 | barasertib 0.028

ATL3 (UniProt Q6DD88)
inactive: [1] 0.023 | [2] -0.004 | [3] 0.021 | [4] 0.031 | Nexturastat A -0.023 | vemurafenib 0.004 | [5] 0.079 | [6] -0.005 | givinostat 0.019 | barasertib -0.005

ATP5F1B (UniProt P06576)
inactive: [1] -0.017 | [2] 0.007 | [3] -0.044 | [4] -0.003 | Nexturastat A -0.016 | vemurafenib -0.023 | [5] -0.063 | [6] -0.011 | givinostat -0.011 | barasertib -0.02

ARL6IP6 (UniProt Q8N6S5)
inactive: [1] -0.112 | [2] -0.038 | [3] 0.009 | [4] -0.071 | Nexturastat A 0.106 | vemurafenib 0 | [5] 0.049 | [6] 0.034 | givinostat 0.099 | barasertib -0.048

ARL2BP (UniProt Q9Y2Y0)
inactive: [1] 0.154 | [2] -0.033 | [3] 0.012 | [4] 0.281 | Nexturastat A 0.043 | vemurafenib -0.031 | [5] 0.071 | [6] 0.102 | givinostat -0.041 | barasertib 0.079

ASRGL1 (UniProt Q7L266)
inactive: [1] 0.024 | [2] -0.019 | [3] 0.005 | [4] -0.017 | Nexturastat A -0.027 | vemurafenib -0.04 | [5] 0.014 | [6] -0.093 | givinostat 0.001 | barasertib 0.047

ARRB1 (UniProt P49407)
inactive: [1] -0.024 | [2] 0.005 | [3] 0.04 | [4] 0.002 | Nexturastat A -0.031 | vemurafenib -0.004 | [5] 0.004 | [6] -0.114 | givinostat -0.027 | barasertib 0.003

ASAP1 isoform 2 (UniProt Q9ULH1)
inactive: [1] 0.055 | [2] -0.012 | [3] -0.015 | [4] 0.022 | Nexturastat A -0.005 | vemurafenib 0.095 | [5] 0.016 | [6] -0.028 | givinostat 0.023 | barasertib 0.091

ASB6 (UniProt Q9NWX5)
inactive: [1] -0.085 | [2] -0.033 | [3] 0.117 | [4] -0.175 | Nexturastat A 0.125 | vemurafenib -0.144 | [5] 0.108 | [6] -0.039 | givinostat 0.108 | barasertib 0.031

ATP5MC2 isoform 2 (UniProt Q06055)
inactive: [1] 0.003 | [2] 0.121 | [3] -0.04 | [4] -0.119 | Nexturastat A 0.018 | vemurafenib -0.055 | [5] 0 | [6] -0.118 | givinostat -0.016 | barasertib -0.003

ASH2L (UniProt Q9UBL3)
inactive: [1] 0.018 | [2] -0.047 | [3] 0.003 | [4] 0.01 | Nexturastat A -0.003 | vemurafenib 0.057 | [5] 0.071 | [6] -0.022 | givinostat 0.031 | barasertib 0.007

ARL3 (UniProt P36405)
inactive: [1] -0.016 | [2] 0.018 | [3] 0.016 | [4] 0.025 | Nexturastat A -0.063 | vemurafenib 0.002 | [5] 0.059 | [6] -0.033 | givinostat 0.005 | barasertib -0.022

ATP6V1B2 (UniProt P21281)
inactive: [1] -0.011 | [2] 0.015 | [3] -0.014 | [4] -0.017 | Nexturastat A 0.016 | vemurafenib -0.032 | [5] -0.001 | [6] -0.013 | givinostat 0.007 | barasertib 0.001

ASF1A (UniProt Q9Y294)
inactive: [1] 0.034 | [2] 0.069 | [3] 0.023 | [4] 0.016 | Nexturastat A 0.156 | vemurafenib 0.029 | [5] -0.016 | [6] -0.002 | givinostat 0.012 | barasertib 0.029

ATP13A3 (UniProt Q9H7F0)
inactive: [1] 0.027 | [2] 0.031 | [3] -0.068 | [4] 0.012 | Nexturastat A -0.042 | vemurafenib -0.014 | [5] -0.02 | [6] -0.076 | givinostat 0.025 | barasertib -0.001

ARRB2 isoform 4 (UniProt P32121)
inactive: [1] -0.044 | [2] 0 | [3] 0.024 | [4] -0.024 | Nexturastat A -0.054 | vemurafenib 0.035 | [5] 0.03 | [6] 0.017 | givinostat -0.022 | barasertib 0.011

ARL6IP4 (UniProt Q66PJ3)
inactive: [1] -0.048 | [2] 0.016 | [3] -0.005 | [4] 0 | Nexturastat A 0.001 | vemurafenib -0.07 | [5] -0.019 | [6] -0.038 | givinostat 0.005 | barasertib -0.01

ATPAF1 (UniProt Q5TC12)
inactive: [1] 0.017 | [2] 0 | [3] 0.081 | [4] -0.032 | Nexturastat A 0.034 | vemurafenib 0.025 | [5] 0.089 | [6] 0.012 | givinostat -0.042 | barasertib 0.014

ARPC1A (UniProt Q92747)
inactive: [1] 0.02 | [2] 0.033 | [3] 0.016 | [4] -0.014 | Nexturastat A -0.052 | vemurafenib 0.001 | [5] 0.034 | [6] -0.07 | givinostat -0.044 | barasertib 0.009

ATP6V1C1 (UniProt P21283)
inactive: [1] 0.004 | [2] -0.037 | [3] -0.024 | [4] -0.033 | Nexturastat A 0.131 | vemurafenib -0.018 | [5] 0.057 | [6] 0.026 | givinostat 0.031 | barasertib 0.062

ARNT (UniProt P27540)
inactive: [1] -0.021 | [2] 0.03 | [3] 0.085 | [4] 0.026 | Nexturastat A 0.085 | vemurafenib -0.044 | [5] 0.031 | [6] -0.067 | givinostat 0.024 | barasertib 0.082

2 records picked at random from those above, as already listed:
ATG13 isoform 5 (UniProt O75143)
inactive: [1] -0.015 | [2] -0.024 | [3] 0.057 | [4] 0.006 | Nexturastat A 0.063 | vemurafenib -0.003 | [5] -0.012 | [6] -0.012 | givinostat 0.018 | barasertib 0.028

ATP6V1C1 (UniProt P21283)
inactive: [1] 0.004 | [2] -0.037 | [3] -0.024 | [4] -0.033 | Nexturastat A 0.131 | vemurafenib -0.018 | [5] 0.057 | [6] 0.026 | givinostat 0.031 | barasertib 0.062

(list continues)

ARL6IP5 (UniProt O75915)
inactive: [1] -0.033 | [2] 0.064 | [3] 0.001 | [4] 0.025 | Nexturastat A -0.065 | vemurafenib -0.017 | [5] -0.029 | [6] -0.028 | givinostat -0.028 | barasertib -0.001

ATP5ME (UniProt P56385)
inactive: [1] 0.036 | [2] -0.037 | [3] 0.031 | [4] 0.011 | Nexturastat A -0.035 | vemurafenib -0.003 | [5] -0.041 | [6] -0.041 | givinostat 0.027 | barasertib 0.007

ARPP19 (UniProt P56211)
inactive: [1] -0.012 | [2] 0.199 | [3] 0.057 | [4] 0.125 | Nexturastat A -0.04 | vemurafenib 0.041 | [5] 0.043 | [6] -0.106 | givinostat -0.003 | barasertib -0.012

ATP5MF (UniProt P56134)
inactive: [1] -0.001 | [2] 0.026 | [3] 0.005 | [4] -0.035 | Nexturastat A -0.021 | vemurafenib 0.015 | [5] -0.023 | [6] -0.038 | givinostat -0.005 | barasertib -0.016

ARMCX3 (UniProt Q9UH62)
inactive: [1] -0.071 | [2] -0.161 | [3] -0.049 | [4] -0.032 | Nexturastat A 0.014 | vemurafenib -0.171 | [5] 0.101 | [6] -0.061 | givinostat 0.015 | barasertib -0.119

ATP1A1 (UniProt P05023)
inactive: [1] 0.002 | [2] 0.01 | [3] 0.015 | [4] 0.025 | Nexturastat A -0.019 | vemurafenib 0.017 | [5] 0.005 | [6] 0.068 | givinostat -0.001 | barasertib -0.02

ATP1A4 (UniProt Q13733)
inactive: [1] 0.017 | [2] 0.029 | [3] 0.141 | [4] 0.065 | Nexturastat A -0.03 | vemurafenib -0.137 | [5] -0.08 | [6] -0.026 | givinostat -0.216 | barasertib 0

ATAD1 (UniProt Q8NBU5)
inactive: [1] 0.019 | [2] -0.034 | [3] 0.012 | [4] -0.012 | Nexturastat A -0.305 | vemurafenib 0.076 | [5] 0.022 | [6] 0.045 | givinostat 0.046 | barasertib 0.055

ARPC2 (UniProt O15144)
inactive: [1] -0.035 | [2] 0.013 | [3] -0.009 | [4] 0 | Nexturastat A -0.069 | vemurafenib 0.001 | [5] 0.004 | [6] -0.061 | givinostat -0.032 | barasertib 0.003
